# Test results reported in patent US9540615B2, “Combined chemical and genetic approaches for generation of induced pluripotent stem cells” (The Scripps Research Institute, priority 2008, dated 2017).
# For some of these results: For at least one compound, name, drawing or mass did not settle the structure. Some results were stated once for a whole list of compounds, not compound by compound.
# Key:
# [1] = tested on: 129 MEFs transduced with OK (Oct4 and Klf4); assay: Screen for iPSC generation from OK-transduced 129 MEFs (ESC-like colony morphology, ALP staining); assay type: cell-based, mouse; conditions: after OK viral transduction and compound treatment
# Experimental: Unmodified MEFs derived from E13-14 embryos of the 129 mice were used for the initial screen. MEFs were plated on Matrigel at 3.5×10^4 cells/well of a 6-well plate and transduced with OK (retroviral vectors expressing Oct4 and Klf4) alone. Within 14-21 days, treated cells were assessed for the appearance of colonies that had the characteristic embryonic stem cell (ESC), colony morphology and were positive for the pluripotency marker alkaline phosphatase (ALP). Such OK-transduced cells generated only a few small non-compact colonies, which were weakly positive for ALP expression. These colonies initially appeared within 21 days after viral transduction and were difficult to expand. Therefore, such assay system offered a clean background for the identification of small molecules having desirable reprogramming inducing activity. Using this system, compounds from a library of around 2000 known small molecules (see Experimental Procedures below) were screened and were identified as hits when they induced the appearance of ESC colonies that were strongly positive for ALP within 14-21 days after treatment. […] We observed that when MEFs were treated with BIX after OK viral transduction, compact colonies with strong ALP expression could be readily detected within approximately 14-21 days. […]
# cellular reprogramming = assay: Enhancement of cellular reprogramming by nuclear receptor ligands; assay type: cell-based
# [2] = tested on: OG2 MEFs transduced with OK (Oct4 and Klf4); assay: iPSC generation from OK-transduced OG2 MEFs (GFP+ colonies), including second synergist screen with BIX; assay type: cell-based, mouse; conditions: 1 μM BIX plus individual compound at 0.5-2 μM; not further followed up
# Experimental: Primary 129S2/SvPasCrlf (primary screen) or ROSA26^+/−/OG2^+/− (secondary screen) MEFs were plated onto Matrigel (1:50; BD Biosciences, Bedford, Mass.) coated dishes at a density of 3.5×10^4 cells per well of a 6-well plate. Twenty-four hours later, these cells were transduced overnight with defined retroviruses at 37° C., 5% CO2. Twelve to fourteen hours later, the media on the transduced cells was changed to mESC medium [Knockout DMEM, 10% ES-qualified FBS, 10% Knockout serum replacement, 1% Glutamax, 1% Non-essential amino acids, penicillin/streptomycin, 0.1 mM β-mercaptoethanol, 1% EmbryoMax ESC Qualified Nucleosides (Millipore, Temecula, Calif.), and 10^3 U/ml LIF (Millipore)] (all products were from Invitrogen, Carlsbad, Calif., except where mentioned). On that same day, individual small molecules from our known drug collection were added to the cells at a range between 0.5 and 2 μM. Compound treatment was continued for 10-14 days; the cells were fixed and stained on day 14-21 using a standard ALP detection kit (Millipore). For the second screen, 1 μM BIX was added to the mESC medium 1 day after transduction. Five days later, in addition to 1 μM BIX, individual small molecule from the known drug collection was added to each well, at a range between 0.5 and 2 μM. […]
compound,measurement,setting,value
COc1cc2nc(N3CCCN(C)CC3)nc(NC3CCN(Cc4ccccc4)CC3)c2cc1OC [BIX01294],time until compact/ESC-like colonies with strong ALP expression were detected,[1],14 to 21 days
CC1(COc2ccc(CC3SC(=O)NC3=O)cc2)CCCCC1 (stereo not shown) [ciglitazone],cellular reprogramming,cellular reprogramming; at 5 μM,enhance cellular reprogramming
C[C@@H]1C[C@H]2[C@@H]3CCC4=CC(=O)C=C[C@]4(C)[C@@]3(F)[C@@H](O)C[C@]2(C)[C@@]1(O)C(=O)CO [dexamethasone],cellular reprogramming,cellular reprogramming; at 1 μM,enhance cellular reprogramming
same,outcome in second synergist screen,[2],primary hits
